Measured values published in US10934287B2, “Fused heterocyclic compound and composition containing same” (Sumitomo Chemical Company, Limited, priority 2017, dated 2021).
Some entries share one result that the patent states for a list of compounds. For at least one compound, name, drawing or mass did not settle the structure.

Tests used:
Assay type in all cases: in vivo
[1] = system: cotton aphids (Aphis gossypii); experiment: Test Example 1: foliar spray on cucumber seedlings infested with cotton aphids; details: spray 10 mL/seedling, 5 days after spraying, 25° C.
[2] = system: 4th instar larvae of cotton worm (Spodoptera litura); experiment: Test Example 3: treated artificial diet, cotton worm larvae; details: 500 ppm, 2 mL on artificial diet, after 5 days
[3] = system: 2nd instar larvae of diamondback moth (Plutella xylostella); details: 500 ppm, spray 20 mL/seedling, after 5 days
[4] = system: 3rd instar larvae of diamondback moth (Plutella xylostella); details: 200 ppm, spray 20 mL/seedling, after 5 days
[5] = system: 2nd instar larvae of western corn rootworm (Diabrotica virgifera virgifera); details: 500 ppm, seedlings immersed 30 seconds, after 5 days
[6] = system: cotton aphids (Aphis gossypii); experiment: Test Example 2: irrigation into plant foot of cucumber seedlings, cotton aphids released after 7 days; details: 1000 ppm, irrigation 5 mL/seedling, examined after additional 6 days

CCS(=O)(=O)c1cc(Oc2cccc(Cl)n2)cnc1-c1nc2cc(C(F)(F)F)cnc2n1C [Present compound 7]
controlling value ([1]; 200 ppm): ≥ 90% | controlling value ([1]; 500 ppm): ≥ 90% | mortality [2]: ≥ 80% | mortality [3]: ≥ 80% | mortality [4]: ≥ 90% | mortality [5]: ≥ 80%

CCS(=O)(=O)c1cc(Oc2ccc(Cl)cn2)cnc1-c1nc2cc(C(F)(F)F)cnc2n1C [Present compound 8]
controlling value ([1]; 200 ppm): ≥ 90% | controlling value ([1]; 500 ppm): ≥ 90% | mortality [2]: ≥ 80% | mortality [3]: ≥ 80% | mortality [4]: ≥ 90% | mortality [5]: ≥ 80%

CCS(=O)(=O)c1cc(Oc2ccccn2)cnc1-c1nc2cc(C(F)(F)F)n(C)c(=O)c2n1C [Present compound 17]
controlling value ([1]; 200 ppm): ≥ 90% | controlling value [6]: ≥ 90% | mortality [4]: ≥ 90%

CCS(=O)(=O)c1cc(Oc2cccc(C)n2)cnc1-c1nc2cc(C(F)(F)F)cnc2n1C [Present compound 6]
controlling value ([1]; 500 ppm): ≥ 90% | mortality [3]: ≥ 80%

CCS(=O)(=O)c1cc(Oc2ccn(C)n2)cnc1-c1nc2cc(C(F)(F)F)cnc2n1C [Present compound 10]
controlling value ([1]; 200 ppm): ≥ 90% | controlling value ([1]; 500 ppm): ≥ 90% | controlling value [6]: ≥ 90%

CCS(=O)(=O)c1cc(Oc2ccccn2)cnc1-c1nc2cc(C(F)(F)F)ncc2n1C [Present compound 16]
mortality [5]: ≥ 80%
